Paper PMC12505969
No constants are given. Whether binding was seen depends on the method and setting. In cells and extracts the contact can be indirect. Some entries that bind do so weakly or less than the wild type.

Protein sequences, listed by entry. Tags and fused reporters are not part of them. Residues count along the entry.
UniProt P13404, residues 24-185: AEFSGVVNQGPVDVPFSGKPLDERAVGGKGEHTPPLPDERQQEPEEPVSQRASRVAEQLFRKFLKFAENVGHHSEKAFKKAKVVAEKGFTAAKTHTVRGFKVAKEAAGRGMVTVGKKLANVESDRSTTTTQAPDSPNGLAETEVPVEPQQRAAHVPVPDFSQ
UniProt O00933, residues 27-236: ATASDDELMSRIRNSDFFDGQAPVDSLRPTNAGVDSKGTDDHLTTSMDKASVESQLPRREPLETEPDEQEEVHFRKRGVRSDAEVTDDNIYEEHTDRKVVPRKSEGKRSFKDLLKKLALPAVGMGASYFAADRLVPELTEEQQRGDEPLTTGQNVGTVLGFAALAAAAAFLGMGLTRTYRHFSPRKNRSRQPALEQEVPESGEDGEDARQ
UniProt P53476: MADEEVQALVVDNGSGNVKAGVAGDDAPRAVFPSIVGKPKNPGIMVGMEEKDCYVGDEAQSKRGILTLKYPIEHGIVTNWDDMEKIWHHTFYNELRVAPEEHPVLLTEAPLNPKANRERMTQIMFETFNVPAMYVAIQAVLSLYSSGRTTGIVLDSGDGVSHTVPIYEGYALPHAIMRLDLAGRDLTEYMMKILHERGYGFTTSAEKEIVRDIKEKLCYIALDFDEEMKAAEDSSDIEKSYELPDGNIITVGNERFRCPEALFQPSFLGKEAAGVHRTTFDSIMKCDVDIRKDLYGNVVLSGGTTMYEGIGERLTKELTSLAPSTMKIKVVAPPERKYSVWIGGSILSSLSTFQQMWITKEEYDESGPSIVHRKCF

B1: Leucyl aminopeptidase LAP (protein, UniProt S8GHV2 1-781)
chain: MVPPSPGASCLLSRTRQRNVLPLACSLCLYTVTVCSALRRDPTFLLNQLKIGPQFAHFSPFVETGRTSSHSGVSPSTFSGSLRSRQHAFTMRPSSFPAFLVKLPAKHKNQCRQSAAAVAGSTACWQSSLHAPACAFPFSRRNGGHPERRDAPSLSSPRSSPASFLSVLRPVTSPLPCVWKAKTPHARPLALPLPPVRTASLATFSSGSSPRRSSNHSEMSRVPAPLTVVKTDPTAIPFVGCQPAKKVRMEAVDISEAEKYSGDLIVFSVLAPGCFHDAPNASQPQKGPIALPELAQKFDDAVGQGMLKDAVEAADFKAKMGSQVFVRLPSKSAPAVKQLAALGFGSIAEVTPSAVTKAAAAFASMLLRGSGEKAKTVAVVLPTCQKVCPSAEGQRKTREMKERVVTSFLETLLVELQPDLRFKGDREDGKHSGPQVEKLTLFTDDVEAVNRAIARAKVVAPGVYFAQELVNAPANYCNPVTLARAAVEMAKEAGLEAEVLQQDDIEKLKMGCYLAVAKGSLFPPQFIHLTYKSSNPKRRVAFVGKGICFDAGGYNLKTGGAQIELMKFDMGGAAAVLGAARALGELKPENVEVHFLVAACENMISAKSYRPGDVITASNGKTVEVGNTDAEGRLTLADALVYAEKTVKADTIVDVATLTGAVIVALGYKYAGLWSNKECLASSILKSAENSGECMWHMPLAKDYAEALDSKCADMNNVGGKGKGGSIIAAVFLNKFIEQASWAHIDIAGTAWDMKTSMATGFGVRTLVEYIMDISTQTKEN
B2: GRA1 (protein, UniProt P13403 25-190)
chain: AEGGDNQSSAVSDRASLFGLLSGGTGQGLGIGESVDLEMMGNTYRVERPTGNPDLLKIAIKASDGSYSEVGNVNVEEVIDTMKSMQRDEDIFLRALNKGETVEEAIEDVAQAEGLNSEQTLQLEDAVSAVASVVQDEMKVIDDVQQLEKDKQQLKDDIGFLTGERE

Key:
Assay in all cases: cross-linking; XL-MS: tachyzoite soluble cytosolic lysate (hypotonic lysis), 1 µg/µL in 1x PBS, 5 mM Azide-A-DSBSO, 2 h at room temperature; digested, DBCO-bead enrichment, LC-MS/MS; cleavable (MS Annika) and non-cleavable (pLink 3) searches; low-score hits salvaged by machine learning; re-searched against a combined human and parasite database for host-parasite pairs
[1] = target: GRA2 (T. gondii (endogenous in ME49 tachyzoites)) (UniProt P13404)
[2] = target: GRA7 (T. gondii (endogenous in ME49 tachyzoites)) (UniProt O00933)
[3] = target: Actin ACT1 (T. gondii (endogenous in ME49 tachyzoites)) (UniProt P53476)
[4] = target: Leucyl aminopeptidase LAP (T. gondii (endogenous in ME49 tachyzoites)) (UniProt S8GHV2)

Molecule	binding [1]	also measured
GRA2 (from UniProt P13404 24-185)	binds	
GRA7 (from UniProt O00933 27-236)	binds	binding [2]: binds
Actin ACT1 (from UniProt P53476 1-376)		binding [3]: binds
B1		binding [4]: binds
B2	binds	
